In this assay the test system is Lewis lung carcinoma i.m., BDF1 mice, T/C %. In words: NCI In Vivo Anticancer Drug Screen. Data for tumor model Lewis Lung Carcinoma (intramuscular) in B6D2F1 (BDF1) mice. An outline of the steps:
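Value is the ratio of a treated-group measurement (T) to the matching vehicle-control measurement (C), using either survival or tumour size in mice bearing transplanted tumours.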

The mark [1] stands for this setting: T/C endpoint: median survival time, dose: 20.0 mg/kg/injection, schedule: Q01DX011 (ip), vehicle: saline, higher T/C = longer survival.
Where [2] appears, read: T/C endpoint: median survival time, dose: 40.0 mg/kg/injection, schedule: Q01DX011 (ip), vehicle: saline, higher T/C = longer survival.

The list does not hold the whole screen: it gathers tests that were run many times, whatever their T/C, doses with no T/C, and many T/C values between a quarter and a half above the control. Other doses and runs of a compound stand elsewhere. T/C: endpoint of the treated group in % of that of the vehicle group. Schedule codes are those of the source, read here as Q, the interval in days (D) or hours (H), X, the number of doses. Some entries give survivors of the animals treated and no T/C: the source files T/C as zero there, which appears to mark a toxic dose or a test without result, not a measured value. Some doses without a T/C left all or most animals alive at the check, yet need not have been tolerated: the source hardly ever lists a survival T/C far under the control, and the zero likely stands for such cases as well. Counts of survivors are from the toxicity check (mostly the fifth day) where no day follows; animals may have died later. Signs of the kind (2×) count equal records among those shown. Some doses were run more than once; the results are listed from low to high. For survival time, this PubChem deposit counts one and a half times the control or more as active, and values a quarter to a half above the control carry no call in these data; other NCI protocols may use other cut-offs. Some T/C values are followed by the survivors on the day toxicity was checked, most often the fifth; without a count, all were alive then.

The results in this text go back to PubChem BioAssay AID272 (DTP/NCI, 2004).

On to `O=c1[nH]cc(F)c(=O)[nH]1`, for which the survivor count is, setting by setting: (T/C endpoint: mean tumor weight (est.), dose: 5.0 mg/kg/injection, schedule: Q01DX011 (ip), vehicle: saline with Tween-80, higher T/C = larger tumour) 4 of 8; (T/C endpoint: median survival time, dose: 5.0 mg/kg/injection, schedule: Q01DX011 (ip), vehicle: saline, higher T/C = longer survival) 4 of 8; under setting [1], 3 of 8, 7 of 8, 8 of 8; (T/C endpoint: median survival time, dose: 40.0 mg/kg/injection, schedule: Q01DX009 (ip), vehicle: saline, higher T/C = longer survival) 10 of 10; (T/C endpoint: median survival time, dose: 40.0 mg/kg/injection, schedule: Q01DX011 (ip), vehicle: other, higher T/C = longer survival) 0 of 8; under setting [2], 0 of 8 (4×). In addition, the survivor count was 10 of 10 (T/C endpoint: median survival time, dose: 80.0 mg/kg/injection, schedule: Q01DX009 (ip), vehicle: saline, higher T/C = longer survival); 0 of 8 (T/C endpoint: median survival time, dose: 80.0 mg/kg/injection, schedule: Q01DX011 (ip), vehicle: other, higher T/C = longer survival); 0 of 8 (3×) (T/C endpoint: median survival time, dose: 80.0 mg/kg/injection, schedule: Q01DX011 (ip), vehicle: saline, higher T/C = longer survival); 8 of 8 (T/C endpoint: median survival time, dose: 100.0 mg/kg/injection, schedule: Q04DX004 (ip), vehicle: saline, higher T/C = longer survival); 8 of 8 (T/C endpoint: median survival time, dose: 200.0 mg/kg/injection, schedule: Q04DX004 (ip), vehicle: saline, higher T/C = longer survival). The T/C is 146 % of control (T/C endpoint: mean tumor weight, dose: 5.0 mg/kg/injection, schedule: Q01DX011 (ip), vehicle: saline, evaluated on day 12, higher T/C = larger tumour); 104 % of control [7 of 8 alive] (T/C endpoint: median survival time, dose: 5.0 mg/kg/injection, schedule: Q01DX011 (ip), vehicle: saline, evaluated on day 39, higher T/C = longer survival); 97 % of control (T/C endpoint: median survival time, dose: 5.0 mg/kg/injection, schedule: Q01DX011 (ip), vehicle: saline, evaluated on day 40, higher T/C = longer survival); 98 % of control [7 of 8 alive] (T/C endpoint: median survival time, dose: 5.0 mg/kg/injection, schedule: Q01DX011 (ip), vehicle: saline, evaluated on day 47, higher T/C = longer survival); 107 % of control (T/C endpoint: median survival time, dose: 5.0 mg/kg/injection, schedule: Q01DX011 (ip), vehicle: saline, evaluated on day 50, higher T/C = longer survival); 91 % of control [7 of 8 alive] (T/C endpoint: median survival time, dose: 10.0 mg/kg/injection, schedule: Q01DX011 (ip), vehicle: saline, evaluated on day 39, higher T/C = longer survival). For the same compound, the T/C (T/C endpoint: median survival time, dose: 10.0 mg/kg/injection, schedule: Q01DX011 (ip), vehicle: saline, evaluated on day 40, higher T/C = longer survival) is 107 [7 of 8 alive] and 123 % of control; the T/C (T/C endpoint: median survival time, dose: 10.0 mg/kg/injection, schedule: Q01DX011 (ip), vehicle: saline, evaluated on day 47, higher T/C = longer survival) was 109 % of control; the T/C (T/C endpoint: median survival time, dose: 10.0 mg/kg/injection, schedule: Q01DX011 (ip), vehicle: saline, evaluated on day 50, higher T/C = longer survival) is 108 % of control; the T/C (T/C endpoint: median survival time, dose: 20.0 mg/kg/injection, schedule: Q01DX011 (ip), vehicle: saline, evaluated on day 40, higher T/C = longer survival) was 130 % of control; the T/C (T/C endpoint: median survival time, dose: 20.0 mg/kg/injection, schedule: Q01DX011 (ip), vehicle: saline, evaluated on day 47, higher T/C = longer survival) was 115 % of control [7 of 8 alive].

`Clc1nc2ccccc2nc1CI`: the survivor count (T/C endpoint: mean tumor weight (est.), dose: 10.0 mg/kg/injection, schedule: Q01DX011 (ip), vehicle: saline, higher T/C = larger tumour) is recorded as 5 of 8; the survivor count (T/C endpoint: median survival time, dose: 10.0 mg/kg/injection, schedule: Q01DX011 (ip), vehicle: saline, higher T/C = longer survival) is listed as 5 of 8; the survivor count under setting [1] is recorded as 2 of 8; the survivor count under setting [2] was 0 of 8.

`OC(CBr)C(O)C(O)C(O)CBr` (stereo not drawn): the survivor count is 5 of 8 (T/C endpoint: mean tumor weight, dose: 62.5 mg/kg/injection, schedule: Q01DX011 (ip), vehicle: Klucel (hydroxypropylcellulose) (HPC), higher T/C = larger tumour); 3 of 8 (T/C endpoint: mean tumor weight, dose: 500.0 mg/kg/injection, schedule: Q01DX011 (ip), vehicle: Klucel (hydroxypropylcellulose) (HPC), higher T/C = larger tumour); 5 of 8 (T/C endpoint: median survival time, dose: 62.5 mg/kg/injection, schedule: Q01DX011 (ip), vehicle: Klucel (hydroxypropylcellulose) (HPC), higher T/C = longer survival); 8 of 8 (T/C endpoint: median survival time, dose: 200.0 mg/kg/injection, schedule: Q01DX011 (ip), vehicle: Klucel (hydroxypropylcellulose) (HPC), higher T/C = longer survival); 3 of 8 and 7 of 8 (T/C endpoint: median survival time, dose: 400.0 mg/kg/injection, schedule: Q01DX011 (ip), vehicle: Klucel (hydroxypropylcellulose) (HPC), higher T/C = longer survival); 3 of 8 (T/C endpoint: median survival time, dose: 500.0 mg/kg/injection, schedule: Q01DX011 (ip), vehicle: Klucel (hydroxypropylcellulose) (HPC), higher T/C = longer survival). In addition, where the note is “T/C endpoint: median survival time, dose: 800.0 mg/kg/injection, schedule: Q01DX011 (ip), vehicle: Klucel (hydroxypropylcellulose) (HPC), higher T/C = longer survival”, the survivor count is 0 of 8 (3×). Also, the T/C reads like this: (T/C endpoint: median survival time, dose: 50.0 mg/kg/injection, schedule: Q01DX011 (ip), vehicle: Klucel (hydroxypropylcellulose) (HPC), higher T/C = longer survival) 126 % of control; (T/C endpoint: median survival time, dose: 100.0 mg/kg/injection, schedule: Q01DX011 (ip), vehicle: Klucel (hydroxypropylcellulose) (HPC), higher T/C = longer survival) 130 % of control [7 of 8 alive].

Regarding `CC(=O)OC(C1CO1)C(OC(C)=O)C1CO1` (stereo not drawn), the survivor count under setting [1] is given as 10 of 10.

Regarding `CCN1/C(=C/C=C/c2oc3ccccc3[n+]2CC)Oc2ccccc21`, the survivor count is, setting by setting: (T/C endpoint: median survival time, dose: 75.0 micrograms/kg/injection, schedule: Q01DX011 (ip), vehicle: saline, higher T/C = longer survival) 8 of 8; (T/C endpoint: median survival time, dose: 150.0 micrograms/kg/injection, schedule: Q01DX011 (ip), vehicle: saline, higher T/C = longer survival) 8 of 8.

As for `CCCCc1ccc(NC(=O)N(CCCl)N=O)cc1`, the survivor count (T/C endpoint: median survival time, dose: 8.4 mg/kg/injection, schedule: Q07DX003 (ip), vehicle: Klucel (hydroxypropylcellulose) (HPC), higher T/C = longer survival) is given as 8 of 8.

Regarding `NCC(=O)c1ccc(O)c(O)c1`, the survivor count is 1 of 8 (T/C endpoint: mean tumor weight (est.), dose: 400.0 mg/kg/injection, schedule: Q01DX011 (ip), vehicle: saline, higher T/C = larger tumour); 1 of 8 (T/C endpoint: mean tumor weight (est.), dose: 800.0 mg/kg/injection, schedule: Q01DX011 (ip), vehicle: saline, higher T/C = larger tumour); 7 of 8 (T/C endpoint: median survival time, dose: 100.0 mg/kg/injection, schedule: Q01DX011 (ip), vehicle: saline, higher T/C = longer survival); 1 of 8 (T/C endpoint: median survival time, dose: 400.0 mg/kg/injection, schedule: Q01DX011 (ip), vehicle: saline, higher T/C = longer survival); 1 of 8 (T/C endpoint: median survival time, dose: 800.0 mg/kg/injection, schedule: Q01DX011 (ip), vehicle: saline, higher T/C = longer survival).

With `CCN(CC)Cc1cc(Nc2c3ccccc3nc3cc(Cl)ccc23)ccc1O`, the survivor count is, setting by setting: (T/C endpoint: mean tumor weight (est.), dose: 8.75 mg/kg/injection, schedule: Q01DX011 (ip), vehicle: saline, higher T/C = larger tumour) 2 of 8; (T/C endpoint: mean tumor weight (est.), dose: 17.5 mg/kg/injection, schedule: Q01DX011 (ip), vehicle: saline, higher T/C = larger tumour) 1 of 8.

For the compound `c1ccc2c(c1)ccc1c[n+]3ccccc3cc12`, the survivor count reads like this: (T/C endpoint: mean tumor weight (est.), dose: 1.0 mg/kg/injection, schedule: Q01DX011 (ip), vehicle: saline, higher T/C = larger tumour) 3 of 8; (T/C endpoint: median survival time, dose: 0.25 mg/kg/injection, schedule: Q01DX011 (ip), vehicle: saline, higher T/C = longer survival) 6 of 8; (T/C endpoint: median survival time, dose: 1.0 mg/kg/injection, schedule: Q01DX011 (ip), vehicle: saline, higher T/C = longer survival) 3 of 8; (T/C endpoint: median survival time, dose: 2.0 mg/kg/injection, schedule: Q01DX011 (ip), vehicle: saline, higher T/C = longer survival) 6 of 8. Also, where the note is “T/C endpoint: median survival time, dose: 0.5 mg/kg/injection, schedule: Q01DX011 (ip), vehicle: saline, higher T/C = longer survival”, the T/C was 126 % of control.

Take `O=c1c(O)c(-c2ccc(O)c(O)c2)oc2cc(O)cc(O)c12`: the survivor count by setting is: (T/C endpoint: median survival time, dose: 400.0 mg/kg/injection, schedule: Q02DX009 (ip), vehicle: saline, higher T/C = longer survival) 8 of 8; (T/C endpoint: median survival time, dose: 800.0 mg/kg/injection, schedule: Q02DX009 (ip), vehicle: saline, higher T/C = longer survival) 5 of 8; (T/C endpoint: median survival time, dose: 1600.0 mg/kg/injection, schedule: Q02DX009 (ip), vehicle: saline, higher T/C = longer survival) 2 of 8.

With `S=P(N1CC1)(N1CC1)N1CC1`, the survivor count was 0 of 10 (T/C endpoint: median survival time, dose: 1.5 mg/kg/injection, schedule: Q01DX011 (ip), vehicle: water, higher T/C = longer survival); 8 of 10 (T/C endpoint: median survival time, dose: 6.0 mg/kg/injection, schedule: Q01DX011 (ip), vehicle: water, higher T/C = longer survival); 0 of 10 and 7 of 10 (T/C endpoint: median survival time, dose: 12.0 mg/kg/injection, schedule: Q01DX011 (ip), vehicle: water, higher T/C = longer survival); 0 of 10 (T/C endpoint: median survival time, dose: 24.0 mg/kg/injection, schedule: Q01DX011 (ip), vehicle: water, higher T/C = longer survival).
